# According to paper PMC9912839:
# Sequences of proteins named here, by UniProt entry; tags and fusion partners are left off. A change or cut given only in a name is not applied to a line headed by its entry.
# UniProt Q9WTZ2: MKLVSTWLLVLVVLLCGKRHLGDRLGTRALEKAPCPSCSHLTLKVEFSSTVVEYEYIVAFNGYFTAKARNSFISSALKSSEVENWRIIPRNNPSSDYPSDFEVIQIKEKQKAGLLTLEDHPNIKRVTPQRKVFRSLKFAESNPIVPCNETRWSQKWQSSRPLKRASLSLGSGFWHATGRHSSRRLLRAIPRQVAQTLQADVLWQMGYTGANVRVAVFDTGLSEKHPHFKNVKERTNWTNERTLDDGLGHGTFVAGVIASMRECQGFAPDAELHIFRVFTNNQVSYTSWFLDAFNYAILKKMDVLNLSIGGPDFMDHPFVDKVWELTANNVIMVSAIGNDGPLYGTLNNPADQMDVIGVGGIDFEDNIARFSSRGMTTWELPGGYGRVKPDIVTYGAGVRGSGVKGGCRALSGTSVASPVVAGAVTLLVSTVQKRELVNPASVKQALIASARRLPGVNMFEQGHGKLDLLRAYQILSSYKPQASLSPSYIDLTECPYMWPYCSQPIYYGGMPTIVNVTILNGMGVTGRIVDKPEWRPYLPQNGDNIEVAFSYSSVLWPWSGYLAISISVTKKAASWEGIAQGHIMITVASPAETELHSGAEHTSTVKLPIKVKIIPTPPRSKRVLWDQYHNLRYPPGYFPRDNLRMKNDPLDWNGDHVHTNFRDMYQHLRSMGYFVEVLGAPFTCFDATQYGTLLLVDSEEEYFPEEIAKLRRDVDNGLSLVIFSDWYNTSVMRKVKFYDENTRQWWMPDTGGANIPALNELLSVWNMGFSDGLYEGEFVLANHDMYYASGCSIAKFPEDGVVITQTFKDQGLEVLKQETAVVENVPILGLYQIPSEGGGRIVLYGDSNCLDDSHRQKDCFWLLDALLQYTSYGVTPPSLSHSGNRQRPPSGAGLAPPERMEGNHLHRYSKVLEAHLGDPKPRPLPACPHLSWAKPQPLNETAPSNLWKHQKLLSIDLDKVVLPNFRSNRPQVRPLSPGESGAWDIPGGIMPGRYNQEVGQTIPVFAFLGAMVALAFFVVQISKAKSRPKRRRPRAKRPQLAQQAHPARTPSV
# No constants are given. Whether binding was seen depends on the method and setting. Binding seen in cells or lysates may run through a third protein. Binding calls can cover weak binding; strength is not graded here. Sequences can lack the tags named with a protein.
# Biological target: T1, HA-tagged mouse caspase-11 (mouse) (UniProt P70343)
# T1 sequence: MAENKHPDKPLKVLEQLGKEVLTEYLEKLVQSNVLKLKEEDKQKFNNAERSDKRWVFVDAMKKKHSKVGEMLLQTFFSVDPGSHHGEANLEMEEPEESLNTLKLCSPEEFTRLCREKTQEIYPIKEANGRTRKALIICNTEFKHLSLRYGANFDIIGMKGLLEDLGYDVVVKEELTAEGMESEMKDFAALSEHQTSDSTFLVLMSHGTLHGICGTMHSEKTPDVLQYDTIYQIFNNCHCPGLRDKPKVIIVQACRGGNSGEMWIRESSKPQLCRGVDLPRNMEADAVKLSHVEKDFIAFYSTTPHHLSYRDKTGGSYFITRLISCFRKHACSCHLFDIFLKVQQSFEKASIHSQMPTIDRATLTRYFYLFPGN
# Experiment: co-IP; HEK293T co-transfected with HA-caspase-11 and FLAG-S1P (full length or single domains), 24 h; whole cell lysates (50 mM NaCl, 200 mM Tris-HCl pH 7.5, 1 mM EDTA, 1% NP-40) immunoprecipitated with anti-HA antibody at 4 C overnight, protein G-agarose; blot with anti-FLAG
row,binding,Substance
1,binds,FLAG-tagged mouse S1P domain 1 (domain or fragment)
2,no binding,FLAG-tagged mouse S1P domain 2 (domain or fragment)
3,binds,FLAG-tagged mouse S1P domain 3 (domain or fragment)
4,binds,full-length FLAG-tagged mouse S1P (from UniProt Q9WTZ2) (enzyme)
